# Library screen at single concentrations

The chains behind the UniProt entries cited, without tags or fusion partners. Residues count along the entry.
UniProt Q8IDJ8, 1-583: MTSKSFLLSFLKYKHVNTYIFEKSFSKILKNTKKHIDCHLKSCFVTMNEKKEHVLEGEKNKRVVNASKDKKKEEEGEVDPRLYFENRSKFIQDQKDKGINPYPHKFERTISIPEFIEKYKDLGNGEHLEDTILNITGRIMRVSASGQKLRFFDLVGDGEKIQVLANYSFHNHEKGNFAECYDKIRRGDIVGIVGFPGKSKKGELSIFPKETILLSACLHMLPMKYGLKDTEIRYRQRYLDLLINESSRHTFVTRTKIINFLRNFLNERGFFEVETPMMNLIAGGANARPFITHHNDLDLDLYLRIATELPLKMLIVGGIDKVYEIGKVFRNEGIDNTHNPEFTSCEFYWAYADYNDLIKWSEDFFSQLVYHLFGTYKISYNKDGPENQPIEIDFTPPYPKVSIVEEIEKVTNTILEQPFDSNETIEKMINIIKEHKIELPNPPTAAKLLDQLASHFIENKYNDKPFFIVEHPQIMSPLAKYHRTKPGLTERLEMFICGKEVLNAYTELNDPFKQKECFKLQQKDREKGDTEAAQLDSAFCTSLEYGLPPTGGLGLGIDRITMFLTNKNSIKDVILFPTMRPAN
UniProt I6X8D2, whole entry: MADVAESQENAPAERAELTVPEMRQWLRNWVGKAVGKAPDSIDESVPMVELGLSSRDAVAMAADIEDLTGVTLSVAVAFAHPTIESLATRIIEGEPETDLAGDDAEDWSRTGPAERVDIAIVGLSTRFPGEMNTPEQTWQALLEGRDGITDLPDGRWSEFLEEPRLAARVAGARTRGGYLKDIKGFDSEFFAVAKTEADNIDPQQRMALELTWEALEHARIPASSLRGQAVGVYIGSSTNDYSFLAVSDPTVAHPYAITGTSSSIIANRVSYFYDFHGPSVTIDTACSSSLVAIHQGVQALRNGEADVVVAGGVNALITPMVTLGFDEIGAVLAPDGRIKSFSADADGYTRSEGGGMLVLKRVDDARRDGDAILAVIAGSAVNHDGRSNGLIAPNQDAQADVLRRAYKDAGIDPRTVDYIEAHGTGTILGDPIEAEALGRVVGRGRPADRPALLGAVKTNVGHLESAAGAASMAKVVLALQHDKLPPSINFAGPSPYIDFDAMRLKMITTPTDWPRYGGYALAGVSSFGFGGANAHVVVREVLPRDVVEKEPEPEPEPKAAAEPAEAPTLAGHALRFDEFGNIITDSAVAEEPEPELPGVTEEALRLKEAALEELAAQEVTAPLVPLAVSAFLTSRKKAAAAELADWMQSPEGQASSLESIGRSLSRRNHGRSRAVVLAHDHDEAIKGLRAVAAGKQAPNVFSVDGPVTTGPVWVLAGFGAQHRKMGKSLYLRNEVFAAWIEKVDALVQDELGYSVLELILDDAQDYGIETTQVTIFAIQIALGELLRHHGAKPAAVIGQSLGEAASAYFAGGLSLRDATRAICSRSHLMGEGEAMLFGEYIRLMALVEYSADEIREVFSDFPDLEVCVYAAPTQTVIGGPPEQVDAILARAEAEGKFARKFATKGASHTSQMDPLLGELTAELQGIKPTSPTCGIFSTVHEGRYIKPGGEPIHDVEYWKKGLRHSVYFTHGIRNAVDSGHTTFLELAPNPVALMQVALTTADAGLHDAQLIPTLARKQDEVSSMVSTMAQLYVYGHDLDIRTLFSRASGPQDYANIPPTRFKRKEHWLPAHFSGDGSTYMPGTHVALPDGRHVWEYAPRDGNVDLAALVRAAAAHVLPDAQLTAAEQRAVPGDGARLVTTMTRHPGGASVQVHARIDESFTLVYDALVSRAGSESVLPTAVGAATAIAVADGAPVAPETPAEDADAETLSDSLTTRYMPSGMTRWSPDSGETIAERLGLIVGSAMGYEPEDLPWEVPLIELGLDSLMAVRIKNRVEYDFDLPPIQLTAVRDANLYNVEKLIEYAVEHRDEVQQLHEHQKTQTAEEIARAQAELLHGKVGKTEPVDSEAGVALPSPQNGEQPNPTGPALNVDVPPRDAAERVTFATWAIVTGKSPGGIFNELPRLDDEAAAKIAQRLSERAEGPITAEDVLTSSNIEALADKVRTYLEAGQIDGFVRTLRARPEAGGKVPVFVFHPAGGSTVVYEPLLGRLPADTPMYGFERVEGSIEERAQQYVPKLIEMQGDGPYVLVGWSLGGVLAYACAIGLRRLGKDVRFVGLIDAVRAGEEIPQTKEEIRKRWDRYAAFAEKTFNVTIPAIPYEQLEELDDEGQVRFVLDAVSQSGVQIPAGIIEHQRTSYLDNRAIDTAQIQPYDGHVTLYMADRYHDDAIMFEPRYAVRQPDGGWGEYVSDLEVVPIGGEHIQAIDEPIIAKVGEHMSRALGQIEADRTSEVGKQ
UniProt P9WNZ1, whole entry: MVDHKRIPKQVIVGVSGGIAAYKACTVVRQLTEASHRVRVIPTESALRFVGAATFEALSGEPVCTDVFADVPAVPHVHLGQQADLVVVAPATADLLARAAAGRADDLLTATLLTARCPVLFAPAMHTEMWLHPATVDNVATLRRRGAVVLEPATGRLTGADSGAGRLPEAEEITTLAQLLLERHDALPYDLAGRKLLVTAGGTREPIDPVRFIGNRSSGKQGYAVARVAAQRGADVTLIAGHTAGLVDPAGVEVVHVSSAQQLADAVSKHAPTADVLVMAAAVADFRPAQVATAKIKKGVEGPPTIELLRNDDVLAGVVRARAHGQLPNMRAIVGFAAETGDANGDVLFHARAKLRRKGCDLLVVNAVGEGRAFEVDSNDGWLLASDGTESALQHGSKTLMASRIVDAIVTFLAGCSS
UniProt Q4DA54, 1-478: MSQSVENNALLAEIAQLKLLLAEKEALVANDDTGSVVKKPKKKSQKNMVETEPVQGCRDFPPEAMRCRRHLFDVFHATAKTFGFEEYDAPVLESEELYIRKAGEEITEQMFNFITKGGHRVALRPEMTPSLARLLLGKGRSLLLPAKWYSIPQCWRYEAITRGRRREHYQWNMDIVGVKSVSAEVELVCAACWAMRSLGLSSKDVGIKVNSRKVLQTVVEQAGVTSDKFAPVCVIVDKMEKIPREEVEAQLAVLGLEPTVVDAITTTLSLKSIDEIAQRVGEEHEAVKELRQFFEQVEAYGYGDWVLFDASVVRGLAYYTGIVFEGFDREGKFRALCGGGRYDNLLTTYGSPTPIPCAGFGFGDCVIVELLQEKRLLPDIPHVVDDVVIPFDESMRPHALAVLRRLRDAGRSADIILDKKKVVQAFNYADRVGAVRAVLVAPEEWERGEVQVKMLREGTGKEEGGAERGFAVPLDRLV
UniProt P9WFT3, whole entry: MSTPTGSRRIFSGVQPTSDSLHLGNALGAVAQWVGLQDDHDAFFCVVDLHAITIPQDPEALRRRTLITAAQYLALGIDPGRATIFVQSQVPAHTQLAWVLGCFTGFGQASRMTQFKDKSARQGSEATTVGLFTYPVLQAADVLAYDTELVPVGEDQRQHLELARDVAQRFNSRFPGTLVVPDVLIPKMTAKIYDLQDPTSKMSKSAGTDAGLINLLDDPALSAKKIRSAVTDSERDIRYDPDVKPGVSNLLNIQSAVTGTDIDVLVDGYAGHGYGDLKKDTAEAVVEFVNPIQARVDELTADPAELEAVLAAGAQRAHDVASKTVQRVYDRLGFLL
UniProt P9WPC5, whole entry: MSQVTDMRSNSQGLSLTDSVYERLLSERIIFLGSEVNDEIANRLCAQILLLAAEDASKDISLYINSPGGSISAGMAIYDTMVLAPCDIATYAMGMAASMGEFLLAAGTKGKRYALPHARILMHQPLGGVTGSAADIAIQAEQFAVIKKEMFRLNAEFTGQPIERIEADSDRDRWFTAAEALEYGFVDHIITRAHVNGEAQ
UniProt P9WPC3, whole entry partner: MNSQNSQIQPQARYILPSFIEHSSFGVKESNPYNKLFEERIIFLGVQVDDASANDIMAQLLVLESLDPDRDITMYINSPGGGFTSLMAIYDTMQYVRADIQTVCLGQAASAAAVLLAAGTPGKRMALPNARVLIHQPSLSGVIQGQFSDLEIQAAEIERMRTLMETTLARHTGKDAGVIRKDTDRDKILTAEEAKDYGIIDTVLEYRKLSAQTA

Each number is a percent effect as filed.
The record does not define 0% and 100%; most values in the screen are far below 50% and negative numbers occur (in some assays of this library far below -100).
This is an unselected part of the compounds tested.
Two or more numbers in one place are separate tests of the same structure; such repeats can differ widely.

A: 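Enzyme assay of the cytosolic lysyl-tRNA synthetase in 384-well plates, read by luminescence. Target: Lysine-tRNA ligase, Plasmodium falciparum 3D7 (UniProt Q8IDJ8). Compounds at 30 µM. Higher reads as stronger inhibition, judged from the few compounds that gave an IC50. Of about 69,000 compounds tested this way, about 49 (0.071%) reached 50% or more in at least one test.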
B: 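Polyketide synthase Pks13, Mycobacterium tuberculosis (UniProt I6X8D2). Enzyme assay of the thioesterase domain of polyketide synthase 13; the read-out is not stated. Concentration: 30 µM. The record gives no direction; the compounds picked for IC50 retests had high values, so higher reads as stronger inhibition. Of about 67,000 compounds tested this way, about 300 (0.46%) reached 50% or more in at least one test.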
C: 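Enzyme assay of CoaBC with a phosphate dye (Biomol Green) read at 650 nm. Target: Coenzyme A biosynthesis protein CoaBC, Mycobacterium tuberculosis (UniProt P9WNZ1). Concentration: 30 µM. Direction is inferred from only a few compounds that gave an IC50; most scored high, so higher reads as stronger inhibition. Most strong results did not repeat in a second test. Size under these conditions: about 67,000 compounds, about 40 of them at 50% or above in at least one test.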
D: 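Histidine-tRNA ligase, Trypanosoma cruzi CL Brener (UniProt Q4DA54). Enzyme assay of histidyl-tRNA synthetase; the read-out is not stated. Compounds at 30 µM. Higher reads as stronger inhibition (inferred: compounds with an IC50 in retests scored well above the rest). Of about 69,000 compounds tested this way, about 31 (0.045%) reached 50% or more in at least one test.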
E: 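Tryptophan-tRNA ligase, Mycobacterium tuberculosis (UniProt P9WFT3). Enzyme assay of tryptophanyl-tRNA synthetase; the read-out is not stated. Tested at 10 µM. Higher most likely means stronger inhibition; the record gives no direction and few retests gave an IC50. Size under these conditions: about 65,000 compounds, about 64 of them at 50% or above in at least one test.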
F: 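Protease assay of ClpP1P2, read by the AMC dye that it sets free. Target: ClpP1P2, Mycobacterium tuberculosis (UniProt P9WPC5 and UniProt P9WPC3). Tested at 50 µM. Direction is inferred from only a few compounds that gave an IC50; most scored high, so higher reads as stronger inhibition. Most other retested compounds had strongly negative values. Of about 69,000 compounds tested this way, about 10 (0.015%) reached 50% or more in at least one test.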

Result for CC(=O)N1CCCN(c2nccc(-c3c(C)nn(C)c3C)n2)CC1 was A: 2.91%; B: -2.74%; C: 1.684%; D: 12.12%; E: 4%; F: 24.59%. For CC(Oc1ccc(F)cc1F)C(=O)N1CCC2(CCCO2)CC1 (stereo not given) the result was A: 1.308%; B: -39.25%; C: 5.122%; D: 10.39%; E: 2.716%; F: -1.8%. Result for Cc1nn(C)c(C)c1C1CCCN1CC(=O)Nc1cc(C(C)C)no1 (stereo not given) was A: -0.6195%; B: -5.642%; C: 0%; D: 2.924%; E: -9.386%; F: -13.35%. For CCC(C)(C)n1nnnc1C(c1cccs1)N1CCCCC1 (stereo not given) the result was A: 0.4525%; B: 2.138%; C: -3.425%; D: 4.286%; E: -8.925%; F: -1.513%. O=C(CCc1cscn1)N1CCCC(n2cncn2)C1 (stereo not given) gave A: -1.522%; B: -22.36%; C: -1.305%; D: 1.695%; E: 15.2%; F: -3.17%. With O=C(c1cccc(CO)n1)N1CCOC(c2ccc(Cl)c(Cl)c2)C1 (stereo not given) the screen gave A: 6.789%; B: -11.35%; C: -3.727%; D: -0.5128%; E: 4.459%; F: -2.198%.

CCc1ccc(S(=O)(=O)Nc2cnccc2C)s1 read A: 3.361%; B: -20.4%; C: -9.62%; D: 8.247%; E: 2.692%; F: 0.3287%. For Cc1nsc(C(=O)N2CCc3ccccc3C2)n1 the result was A: -2.996%; B: -6.305%; C: 2.408%; D: 0%; E: 14.88%; F: -9.518%. Cc1nc(NC(=O)NCCCN2CCC(C(N)=O)CC2)sc1C gave A: 1.853%; B: 6.557%; C: 6.901%; D: 8.458%; E: 2.601%; F: 2.517%. CC1(C)CN(C(=O)c2occc2COc2cccc(C#N)c2)CCO1 read A: -4.596%; B: -15.64%; C: 9.529%; D: -0.8772%; E: 2.007%; F: -7.764%. Result for COCCN1CCCC2(CCN(c3nccnc3N(C)C)C2)C1=O (stereo not given) was A: 0%; B: 60.43%; C: -1.733%; D: 1.205%; E: 1.314%; F: -13.03%. CC1(c2ccccc2)CCC(=O)N(CC2(N3CCOCC3)CCCC2)C1 (stereo not given) gave A: 3.128%; B: -5.229%; C: -1.124%; D: 7.143%; E: 0.3127%; F: -9.969%.

Cc1cc(C)nc(NCCC(=O)NCCn2ccc3ccccc32)n1 read A: -1.358%; B: -10.09%; C: 1.263%; D: 7.602%; E: 1.331%; F: 4.767%. Result for Cn1cc(N2CCCC(Oc3ccc(F)cc3Cl)C2=O)cn1 (stereo not given) was A: 3.197%; B: -27.56%; C: 14.73%; D: 5.155%; E: -0.3882%; F: -4.811%. For CCOC(=O)C1CN(C(=O)C2CCOCC2)Cc2ncn(CC)c21 (stereo not given) the result was A: 4.857%; B: -24.82%; C: 7.582%; D: 6.897%; E: -0.7319%; F: -1.554%. With CNC(=O)c1cccc(CCNc2ncc(Br)cn2)c1 the screen gave A: -1.319%; B: 15.66%; C: 1.621%; D: -4.04%; E: 2.437%; F: -1.036%. For O=S(=O)(c1cccnc1)N1C[C@@H]2COC[C@]2(COCC2CC2)C1 the result was A: 2.496%; B: -18.67%; C: 5.708%; D: 3.226%; E: -6.554%; F: -13.08%. With COc1ccccc1[C@@H]1CN(Cc2csc(C(C)=O)c2)C[C@H]1C(=O)O the screen gave A: 2.045%; B: -27.35%; C: -7.692%; D: 6.349%; E: 1.2%; F: 3.697%.

Cc1nnc(N2C[C@@H](OCC3CCCC3)[C@H]3OCCC[C@H]32)s1 read A: 6.068%; B: -34.83%; C: 11.64% & 23.77%; D: 6.468%; E: 1.449%; F: -5.51%.

2 of the entries, repeated:

| SMILES | A | B | C | D | E | F |
|---|---|---|---|---|---|---|
| `Cc1cc(C)nc(NCCC(=O)NCCn2ccc3ccccc32)n1` | -1.358 | -10.09 | 1.263 | 7.602 | 1.331 | 4.767 |
| `CC(Oc1ccc(F)cc1F)C(=O)N1CCC2(CCCO2)CC1` (stereo not given) | 1.308 | -39.25 | 5.122 | 10.39 | 2.716 | -1.8 |

From ChEMBL document CHEMBL3988442, “University of Dundee, Small-Polar-MMV Screening Library” (2021).